Structures were worked out from names or drawings and are uncertain.
Molecular target: human beta-3-adrenergic receptor (Homo sapiens, UniProt P13945)
Assay: cAMP production (SPA) in CHO cells stably expressing human beta-3-adrenergic receptor, agonist activity
Details: read-out: Beta-3 Agonistic Activity, EC50 values; cAMP production in CHO cells expressing human beta-3-adrenergic receptor; compounds binned (≦1 μM or >1 μM); tested form: HCl

Sequences of proteins named here, by UniProt entry; tags and fusion partners are left off.
UniProt P13945, whole entry: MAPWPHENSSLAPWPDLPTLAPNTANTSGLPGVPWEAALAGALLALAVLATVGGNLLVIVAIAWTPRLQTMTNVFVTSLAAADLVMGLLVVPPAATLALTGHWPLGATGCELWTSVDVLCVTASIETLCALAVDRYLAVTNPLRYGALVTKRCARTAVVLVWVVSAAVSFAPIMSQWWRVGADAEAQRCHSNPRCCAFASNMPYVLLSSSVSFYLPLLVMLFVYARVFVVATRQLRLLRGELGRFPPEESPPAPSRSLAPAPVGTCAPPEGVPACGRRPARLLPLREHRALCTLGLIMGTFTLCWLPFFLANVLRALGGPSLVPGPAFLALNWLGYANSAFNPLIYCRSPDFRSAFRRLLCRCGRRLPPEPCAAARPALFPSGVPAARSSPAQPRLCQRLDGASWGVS

O=C(O)c1ccc(-c2ccc3c(c2)CC[C@H](CNC[C@H](O)COc2ccccc2F)O3)cc1 [Example 253]
EC50: ≤ 1000 nM

CCc1ccccc1SC[C@@H](O)CNC[C@H]1CCc2cc(-c3ccc(C(=O)O)cc3)ccc2O1
EC50: > 1000 nM
